Results published in the supplement of paper PMC9233669.
This sample is rich in variants without activity.

What was measured:
[1] = tested on: biotinyl-Met-oxazolone; assay: self-aminoacylation, catalytic enhancement (BMO) (fold over background); higher = more active; k-Seq, kA / k0A0; sequences stand for … in GGGAAUGGAUCCACAUCUACGAAUUC…UUCACUGCAGACUUGACGAAGCUG
Summary of the method: (§1)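 Catalytic enhancement equals the median kA over the uncatalyzed rate, the latter read from the low-activity peak of a bimodal Gaussian fit. Values of kA came from fitting each sequence's fraction reacted to a pseudo-first-order model, with 1000 bootstraps. Reacted RNA was captured with streptavidin and quantified by triplicate qPCR and Illumina sequencing after 90 minutes at room temperature with 2–1250 μM biotinyl-aminoacyl-oxazolone and 0.43 μM mutagenized RNA pools bearing a 21-nt variable region.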

[2] = tested on: biotinyl-Ile-oxazolone; assay: self-aminoacylation, catalytic enhancement (BIO) (fold over background); higher = more active; k-Seq, kA / k0A0; sequences stand for … in GGGAAUGGAUCCACAUCUACGAAUUC…UUCACUGCAGACUUGACGAAGCUG
Summary of the method: as §1

[3] = tested on: biotinyl-Leu-oxazolone; assay: self-aminoacylation, catalytic enhancement (BLO) (fold over background); higher = more active; k-Seq, kA / k0A0; sequences stand for … in GGGAAUGGAUCCACAUCUACGAAUUC…UUCACUGCAGACUUGACGAAGCUG
Summary of the method: as §1

[4] = tested on: biotinyl-Val-oxazolone; assay: self-aminoacylation, catalytic enhancement (BVO) (fold over background); higher = more active; k-Seq, kA / k0A0; sequences stand for … in GGGAAUGGAUCCACAUCUACGAAUUC…UUCACUGCAGACUUGACGAAGCUG
Summary of the method: as §1

Sequence	self-aminoacylation [1]	self-aminoacylation [2]	self-aminoacylation [3]	self-aminoacylation [4]
ACACACUUCAAGUAAUCGGUC [Fam1B.1 aminoacylation ribozyme variant]	1.34	1.56	1.68	1.23
ACUCACUUCAAGCAAUCGGUC [Fam1B.1 aminoacylation ribozyme variant]	0.902	1.03	1.07	1.15
AGGUUUGCUAAGAGUCGCAAG [Fam3.1 aminoacylation ribozyme variant]	1.15	1.12	1.02	1.02
AGUACCGUGGUCAUCGAGUGA [Fam2.1 aminoacylation ribozyme variant]	5.19	3.61	5.87	3.39
AUACUUCAAACAAUCGGUCUG [Fam1A.1 aminoacylation ribozyme variant]	0.939	0.933	1.1	0.914
AUACUUCAAACAAUCGGUCUU [Fam1A.1 aminoacylation ribozyme variant]	0.754	0.87	1.07	0.813
AUGCACCUAGGUCAUUGGGUG [Fam2.2 aminoacylation ribozyme variant]	2.3	2.33	2.53	2.16
AUUACCCAGCUCAUCGAGUGA [Fam2.1 aminoacylation ribozyme variant]	1.54	1.47	1.52	1.56
AUUACCCUAGUCAUCGGGUGA [Fam2.1 aminoacylation ribozyme variant]	7.55	4.76	8.62	4.8
AUUACCCUGGCCAUCGAGUAA [Fam2.1 aminoacylation ribozyme variant]	1.46	1.14	1.87	1.46
AUUACCCUGGUCAUAGAGAGA [Fam2.1 aminoacylation ribozyme variant]	0.983	0.947	0.798	0.717
AUUACCCUGGUCUUCAAGUGA [Fam2.1 aminoacylation ribozyme variant]	4.91	2.76	4.28	2.67
AUUACCCUGGUUAGCGAGUGA [Fam2.1 aminoacylation ribozyme variant]	4.21	2.2	4.28	2.1
AUUACCCUUGUCAUCGAGUAA [Fam2.1 aminoacylation ribozyme variant]	1.36	1.19	1.22	1.13
AUUACCGCGGUCAUCGAGUGA [Fam2.1 aminoacylation ribozyme variant]	5.86	3.36	6.47	3.11
AUUACCGUGGUCAUCAAGUGA [Fam2.1 aminoacylation ribozyme variant]	2.83	1.95	3.05	1.99
AUUACCGUUGUCAUCGAGUGA [Fam2.1 aminoacylation ribozyme variant]	7.75	4.49	8.01	4.16
AUUACCUUGGUCAUCGGGUGA [Fam2.1 aminoacylation ribozyme variant]	9.54	5.69	10.6	6.05
AUUACUCUCGUCAUCGAGUGA [Fam2.1 aminoacylation ribozyme variant]	2.92	2.11	3.39	2.09
AUUAUCCUGGUCAUCGACUGA [Fam2.1 aminoacylation ribozyme variant]	0.65	0.875	0.941	0.785
AUUCACAUAAGUCAUCGGGUG [Fam2.2 aminoacylation ribozyme variant]	11.8	7.61	18.3	6.79

Sequence	self-aminoacylation [1]	self-aminoacylation [2]	self-aminoacylation [3]	self-aminoacylation [4]
AUUCACCUACGUGAUCGGGUG [Fam2.2 aminoacylation ribozyme variant]	2.81	2.19	3.64	2
AUUCACCUAUUUCAUCGGGUG [Fam2.2 aminoacylation ribozyme variant]	2.93	1.85	3.49	2.02
AUUCACCUCGGUCAGCGGGUG [Fam2.2 aminoacylation ribozyme variant]	4.51	3.13	5.84	3.37
AUUCACCUCGGUCAUCGGGCG [Fam2.2 aminoacylation ribozyme variant]	3.37	2.49	3.62	3.43
AUUCCCCUGGUCUUCGAGUGA [Fam2.1 aminoacylation ribozyme variant]	9.43	5.69	9.91	5.87
AUUCCUCUAGGUCAUCGGGUG [Fam2.2 aminoacylation ribozyme variant]	16.6	10.4	23.7	10.5
AUUUACCUAGGUCAUCGAGUG [Fam2.2 aminoacylation ribozyme variant]	9.76	6.62	12.7	5.4
AUUUACCUAUGUCAUCGGGUG [Fam2.2 aminoacylation ribozyme variant]	4.35	3.04	6.5	2.96
CAACUUCAAAGAAUCGGUCUG [Fam1A.1 aminoacylation ribozyme variant]	1.2	1.19	1.13	0.927
CCAAACUUCAAGCAAUCAGUC [Fam1B.1 aminoacylation ribozyme variant]	0.707	0.79	0.77	0.788
CCACACUCCAAUCAAUCGGUC [Fam1B.1 aminoacylation ribozyme variant]	0.686	0.996	0.754	0.814
CCACACUUCAAGGAAUCGGUG [Fam1B.1 aminoacylation ribozyme variant]	7.21	4.9	10.5	4.61
CCACACUUCAAGUAAUCGGCC [Fam1B.1 aminoacylation ribozyme variant]	1.62	1.59	1.83	1.68
CCACACUUCAAGUAAUCGGUC [Fam1B.1 aminoacylation ribozyme variant]	0.813	0.885	1.05	0.928
CCACACUUCCAGCAAUCGGUG [Fam1B.1 aminoacylation ribozyme variant]	3.83	2.74	4.82	3.05
CCACACUUUAAGCAAUAGGUC [Fam1B.1 aminoacylation ribozyme variant]	0.592	0.619	0.578	0.683
CCACAUUUCAACCAAUCGGUC [Fam1B.1 aminoacylation ribozyme variant]	1.75	1.55	1.64	1.6
CCACAUUUCAAGCAAUCGGGC [Fam1B.1 aminoacylation ribozyme variant]	3.55	3.08	2.78	2.7
CCACUCUUCAAGCACUCGGUC [Fam1B.1 aminoacylation ribozyme variant]	1.15	1.02	1.04	0.928
CCAGCCUUCAAGCAAUCGGUC [Fam1B.1 aminoacylation ribozyme variant]	1.37	1.2	1.81	1.48
CCCCACUUCAUGCAAUCGGUC [Fam1B.1 aminoacylation ribozyme variant]	1.47	1.44	1.32	1.82

Sequence	self-aminoacylation [1]	self-aminoacylation [2]	self-aminoacylation [3]	self-aminoacylation [4]
CGACACUACAAGCAAUCGGUC [Fam1B.1 aminoacylation ribozyme variant]	0.769	0.935	0.755	1
CGACACUUAAAGCAAUCGGUC [Fam1B.1 aminoacylation ribozyme variant]	0.956	0.886	0.849	0.95
CGACCCUUCAAGCAAUCGGUC [Fam1B.1 aminoacylation ribozyme variant]	0.97	1.45	1.18	1.62
CGACUUCAAAAAAUCGGUCUG [Fam1A.1 aminoacylation ribozyme variant]	1.81	1.76	1.99	1.37
CGACUUCAAAUAAUCGGUCUG [Fam1A.1 aminoacylation ribozyme variant]	1.14	1.34	1.6	0.979
CUAAUUCAAACAAUCGGUCUC [Fam1A.1 aminoacylation ribozyme variant]	0.687	0.884	0.757	0.781
CUACACUUCAAGCAAUCGGUC [Fam1B.1 aminoacylation ribozyme variant]	0.989	1	1.52	1.13
CUACCUCAAACAAUCGGUCUG [Fam1A.1 aminoacylation ribozyme variant]	0.938	0.923	0.911	0.994
CUACGUCAAAAAAUCGGUCUG [Fam1A.1 aminoacylation ribozyme variant]	1.66	1.53	1.51	1.36
CUACGUGAAACAAUCGGUCUG [Fam1A.1 aminoacylation ribozyme variant]	1.57	1.31	1.66	1.56
CUACUGCAAACAAUCGGUCUC [Fam1A.1 aminoacylation ribozyme variant]	0.916	0.855	0.716	0.885
CUACUUCAAAAAAUCGGGCUG [Fam1A.1 aminoacylation ribozyme variant]	1.33	1.21	1.47	0.961
CUACUUCAAACAAUCGGUCUG [Fam1A.1 aminoacylation ribozyme variant]	1.21	1.1	1.86	1.17
CUACUUCAAACAUUCGGUUUG [Fam1A.1 aminoacylation ribozyme variant]	1.05	1.17	0.962	1.2
CUACUUCAAAUAAUCGGUUUG [Fam1A.1 aminoacylation ribozyme variant]	0.771	0.888	0.874	0.736
CUACUUCAACCAAUCGGUCAG [Fam1A.1 aminoacylation ribozyme variant]	0.629	0.884	0.724	0.854
CUACUUCAAGCAAUCAGUCUG [Fam1A.1 aminoacylation ribozyme variant]	0.615	0.772	0.698	0.786
CUACUUCAAGCAAUCGGUCUA [Fam1A.1 aminoacylation ribozyme variant]	0.886	0.968	0.935	0.982
CUACUUCGAACAAUCGUUCUG [Fam1A.1 aminoacylation ribozyme variant]	0.453	0.432	0.457	0.49
CUAGUUCAAACAAUCGGUUUG [Fam1A.1 aminoacylation ribozyme variant]	0.86	0.992	1.13	0.962
CUCAUUCAAACAAUCGGUCUG [Fam1A.1 aminoacylation ribozyme variant]	0.966	0.991	1.23	0.903
